This assay concerns the target Alanyl-tRNA synthetase 1 (AARS1) (human (endogenous in HGECs and HK-2 cells)) (UniProt P49588). The assay can be described thus: co-IP; co-immunoprecipitation in HGECs and HK-2 cells; performed as described previously (ref. 19).

By UniProt entry, the sequences of proteins in these tests, tags left out.
UniProt P49588: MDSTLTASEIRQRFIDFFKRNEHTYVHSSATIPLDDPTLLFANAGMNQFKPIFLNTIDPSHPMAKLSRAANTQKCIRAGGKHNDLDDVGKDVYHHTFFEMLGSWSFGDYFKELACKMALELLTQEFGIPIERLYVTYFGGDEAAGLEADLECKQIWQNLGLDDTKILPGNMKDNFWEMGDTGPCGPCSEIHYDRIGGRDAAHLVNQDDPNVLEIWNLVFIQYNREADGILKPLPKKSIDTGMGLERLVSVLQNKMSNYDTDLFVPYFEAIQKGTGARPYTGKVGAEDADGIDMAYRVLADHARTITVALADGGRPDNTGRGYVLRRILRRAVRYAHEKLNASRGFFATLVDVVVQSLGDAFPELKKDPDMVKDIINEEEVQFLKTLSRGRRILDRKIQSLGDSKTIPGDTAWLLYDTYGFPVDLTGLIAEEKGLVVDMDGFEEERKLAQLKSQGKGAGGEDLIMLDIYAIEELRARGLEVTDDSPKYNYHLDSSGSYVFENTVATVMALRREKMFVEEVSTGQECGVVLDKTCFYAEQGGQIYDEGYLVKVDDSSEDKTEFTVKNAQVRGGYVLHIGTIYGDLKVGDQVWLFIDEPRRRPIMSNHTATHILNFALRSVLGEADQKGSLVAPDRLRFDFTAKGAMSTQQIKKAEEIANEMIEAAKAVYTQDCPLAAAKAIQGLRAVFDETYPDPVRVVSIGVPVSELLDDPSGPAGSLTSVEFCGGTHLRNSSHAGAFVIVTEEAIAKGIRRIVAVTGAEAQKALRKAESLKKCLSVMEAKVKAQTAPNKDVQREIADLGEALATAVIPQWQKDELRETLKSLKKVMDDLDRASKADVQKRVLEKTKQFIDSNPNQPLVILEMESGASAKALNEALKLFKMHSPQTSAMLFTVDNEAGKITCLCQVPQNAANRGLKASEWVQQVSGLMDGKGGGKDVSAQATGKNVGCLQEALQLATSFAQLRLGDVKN
UniProt P42224: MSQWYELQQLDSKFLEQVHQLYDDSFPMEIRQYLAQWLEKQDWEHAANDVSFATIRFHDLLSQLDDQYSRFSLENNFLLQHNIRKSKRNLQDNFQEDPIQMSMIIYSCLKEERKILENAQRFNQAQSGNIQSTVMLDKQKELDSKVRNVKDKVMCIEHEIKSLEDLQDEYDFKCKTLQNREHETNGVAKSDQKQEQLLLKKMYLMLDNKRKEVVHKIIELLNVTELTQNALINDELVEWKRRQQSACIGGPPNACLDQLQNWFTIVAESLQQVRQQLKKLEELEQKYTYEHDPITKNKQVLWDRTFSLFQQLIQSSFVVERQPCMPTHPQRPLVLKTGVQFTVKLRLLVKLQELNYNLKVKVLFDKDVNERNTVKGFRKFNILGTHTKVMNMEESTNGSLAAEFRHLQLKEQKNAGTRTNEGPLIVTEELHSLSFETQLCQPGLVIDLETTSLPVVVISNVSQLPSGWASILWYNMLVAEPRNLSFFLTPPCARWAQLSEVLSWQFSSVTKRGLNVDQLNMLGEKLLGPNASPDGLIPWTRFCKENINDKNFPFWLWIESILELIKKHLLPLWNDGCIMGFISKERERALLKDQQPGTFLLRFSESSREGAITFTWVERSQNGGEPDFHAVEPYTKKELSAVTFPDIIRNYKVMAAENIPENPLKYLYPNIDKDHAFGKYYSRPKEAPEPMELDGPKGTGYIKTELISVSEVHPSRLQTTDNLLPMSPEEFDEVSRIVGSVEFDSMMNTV

No constants are given. Whether binding was seen depends on the method and setting. Binding seen in cells or lysates may run through a third protein. Some entries that bind do so weakly or less than the wild type.

Take “signal transducer and activator of transcription 1 (STAT1) (from UniProt P42224 1-750)”: the binding result is recorded as “binds”.

Source of the values: PMC13036035.
